Counter-ions that a name gives are not always drawn. Some of the results follow. Hit calls seldom repeat between salt and free forms of one compound.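 Kinases were expressed as nanoluciferase fusions in K562 cells and luminescence was read every 4 h between 2 and 18 h as percent of control, DMSO set to 100% and a positive control to 0%. A time point counts as decreased when the signal drops significantly (2 sigma). The hit call is the authors' own, does not follow from the count of time points alone, and its rule is not shown.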
How the values were obtained:
Experiment in all cases: number of time points (of 5) at which kinase-Nluc abundance scored as decreased, DMSO-normalised (count); higher = more persistent destabilization
Details in all cases: K562; 2-18 h
EGFR_L861Q = EGFR_L861Q (UniProt P00533)
EGFR_T790M = EGFR_T790M (UniProt P00533)
EPHA2 = EPHA2 (UniProt P29317)
ERBB3 = ERBB3 (UniProt P21860)
[1] = target: ERBB4_R711C (clone: ERBB4_mut) (UniProt Q15303)
ERN1 = ERN1 (UniProt O75460)
FGFR1 = FGFR1 (UniProt P11362)
FGFR2 = FGFR2 (UniProt P21802)
FGFR3 = FGFR3 (UniProt P22607)
FGR = FGR (UniProt P09769)

Sequences of proteins named here, by UniProt entry; tags and fusion partners are left off. A change or cut given only in a name is not applied to a line headed by its entry.
UniProt P29317, whole entry: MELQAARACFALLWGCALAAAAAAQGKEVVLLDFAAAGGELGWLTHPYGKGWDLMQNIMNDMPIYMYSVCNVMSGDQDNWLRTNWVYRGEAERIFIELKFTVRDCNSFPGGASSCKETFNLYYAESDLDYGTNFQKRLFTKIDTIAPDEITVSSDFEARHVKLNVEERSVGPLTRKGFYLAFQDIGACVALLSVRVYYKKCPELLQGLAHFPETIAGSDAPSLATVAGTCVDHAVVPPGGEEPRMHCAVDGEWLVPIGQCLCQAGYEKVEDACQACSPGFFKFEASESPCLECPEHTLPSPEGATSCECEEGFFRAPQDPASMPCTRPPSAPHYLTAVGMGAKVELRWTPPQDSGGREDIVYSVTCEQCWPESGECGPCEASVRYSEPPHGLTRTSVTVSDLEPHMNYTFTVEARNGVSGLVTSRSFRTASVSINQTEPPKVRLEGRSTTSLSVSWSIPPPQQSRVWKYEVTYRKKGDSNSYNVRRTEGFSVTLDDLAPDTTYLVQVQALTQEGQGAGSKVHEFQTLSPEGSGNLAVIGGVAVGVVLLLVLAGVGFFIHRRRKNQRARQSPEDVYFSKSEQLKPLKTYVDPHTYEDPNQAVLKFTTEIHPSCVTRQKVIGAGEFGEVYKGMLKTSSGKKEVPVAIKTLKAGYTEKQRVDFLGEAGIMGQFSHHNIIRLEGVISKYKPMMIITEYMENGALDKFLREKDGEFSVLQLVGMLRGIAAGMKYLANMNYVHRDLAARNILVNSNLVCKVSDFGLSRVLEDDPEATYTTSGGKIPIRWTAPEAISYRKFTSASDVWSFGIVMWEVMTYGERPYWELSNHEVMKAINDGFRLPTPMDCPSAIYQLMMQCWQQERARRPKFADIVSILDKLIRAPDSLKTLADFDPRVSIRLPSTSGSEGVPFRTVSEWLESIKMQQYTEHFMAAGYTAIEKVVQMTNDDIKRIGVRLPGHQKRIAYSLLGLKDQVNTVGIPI
UniProt P21860, whole entry: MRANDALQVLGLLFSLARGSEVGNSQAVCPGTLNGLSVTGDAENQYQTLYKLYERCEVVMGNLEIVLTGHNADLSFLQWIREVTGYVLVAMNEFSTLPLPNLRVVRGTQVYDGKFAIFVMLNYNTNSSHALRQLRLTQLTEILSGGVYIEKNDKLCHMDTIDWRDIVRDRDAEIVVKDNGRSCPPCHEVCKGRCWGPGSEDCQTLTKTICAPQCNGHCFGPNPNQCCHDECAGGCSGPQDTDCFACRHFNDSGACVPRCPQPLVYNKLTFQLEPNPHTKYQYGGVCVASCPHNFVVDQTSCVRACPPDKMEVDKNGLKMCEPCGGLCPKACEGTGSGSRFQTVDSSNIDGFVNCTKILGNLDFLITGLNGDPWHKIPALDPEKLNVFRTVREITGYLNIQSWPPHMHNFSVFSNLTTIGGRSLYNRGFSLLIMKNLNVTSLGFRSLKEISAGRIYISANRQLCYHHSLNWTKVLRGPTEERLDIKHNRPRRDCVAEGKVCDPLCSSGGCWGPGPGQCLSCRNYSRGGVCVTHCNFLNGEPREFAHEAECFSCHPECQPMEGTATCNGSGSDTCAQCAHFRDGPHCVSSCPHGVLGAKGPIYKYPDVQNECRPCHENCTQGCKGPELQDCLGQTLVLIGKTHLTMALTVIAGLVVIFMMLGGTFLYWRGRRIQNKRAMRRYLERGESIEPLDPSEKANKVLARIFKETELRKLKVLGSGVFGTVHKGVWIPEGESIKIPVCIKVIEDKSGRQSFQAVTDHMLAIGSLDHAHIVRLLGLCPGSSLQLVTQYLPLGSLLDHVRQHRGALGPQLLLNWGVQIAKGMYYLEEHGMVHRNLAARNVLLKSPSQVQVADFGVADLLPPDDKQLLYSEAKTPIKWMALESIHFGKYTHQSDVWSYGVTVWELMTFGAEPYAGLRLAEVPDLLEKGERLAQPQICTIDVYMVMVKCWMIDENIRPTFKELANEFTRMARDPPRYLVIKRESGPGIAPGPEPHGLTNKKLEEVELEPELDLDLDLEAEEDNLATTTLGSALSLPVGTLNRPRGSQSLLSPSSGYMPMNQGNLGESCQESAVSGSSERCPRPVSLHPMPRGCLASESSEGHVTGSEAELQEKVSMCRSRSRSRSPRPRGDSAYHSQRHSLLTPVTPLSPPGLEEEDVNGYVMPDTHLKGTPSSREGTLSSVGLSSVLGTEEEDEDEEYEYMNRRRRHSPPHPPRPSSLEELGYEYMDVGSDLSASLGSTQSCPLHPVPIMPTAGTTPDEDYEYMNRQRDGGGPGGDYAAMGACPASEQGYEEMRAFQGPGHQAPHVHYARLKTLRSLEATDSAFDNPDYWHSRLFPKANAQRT
UniProt O75460: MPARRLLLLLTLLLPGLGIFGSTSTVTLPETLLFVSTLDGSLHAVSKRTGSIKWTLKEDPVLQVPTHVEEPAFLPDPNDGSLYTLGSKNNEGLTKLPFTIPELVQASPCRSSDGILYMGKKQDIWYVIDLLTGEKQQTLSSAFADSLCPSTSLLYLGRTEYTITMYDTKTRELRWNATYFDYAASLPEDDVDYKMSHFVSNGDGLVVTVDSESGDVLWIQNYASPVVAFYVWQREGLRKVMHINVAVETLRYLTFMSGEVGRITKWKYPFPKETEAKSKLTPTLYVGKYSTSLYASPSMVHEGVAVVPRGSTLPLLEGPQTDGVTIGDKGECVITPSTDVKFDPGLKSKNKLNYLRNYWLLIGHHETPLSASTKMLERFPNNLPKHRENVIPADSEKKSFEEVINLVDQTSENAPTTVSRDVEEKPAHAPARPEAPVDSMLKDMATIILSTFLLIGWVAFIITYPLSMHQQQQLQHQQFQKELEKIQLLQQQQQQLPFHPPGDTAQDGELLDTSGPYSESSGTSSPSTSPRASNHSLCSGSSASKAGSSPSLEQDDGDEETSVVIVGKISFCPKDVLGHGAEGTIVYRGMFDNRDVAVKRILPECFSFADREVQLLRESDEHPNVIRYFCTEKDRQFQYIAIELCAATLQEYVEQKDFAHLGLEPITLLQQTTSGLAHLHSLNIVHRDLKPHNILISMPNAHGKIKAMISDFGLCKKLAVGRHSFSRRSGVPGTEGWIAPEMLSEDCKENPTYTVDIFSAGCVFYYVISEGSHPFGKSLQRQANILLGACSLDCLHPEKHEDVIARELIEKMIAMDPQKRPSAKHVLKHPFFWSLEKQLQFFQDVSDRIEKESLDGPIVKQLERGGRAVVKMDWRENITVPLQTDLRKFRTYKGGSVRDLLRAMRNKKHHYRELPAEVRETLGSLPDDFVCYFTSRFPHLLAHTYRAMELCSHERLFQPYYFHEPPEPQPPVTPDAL
UniProt P11362, whole entry, looked up: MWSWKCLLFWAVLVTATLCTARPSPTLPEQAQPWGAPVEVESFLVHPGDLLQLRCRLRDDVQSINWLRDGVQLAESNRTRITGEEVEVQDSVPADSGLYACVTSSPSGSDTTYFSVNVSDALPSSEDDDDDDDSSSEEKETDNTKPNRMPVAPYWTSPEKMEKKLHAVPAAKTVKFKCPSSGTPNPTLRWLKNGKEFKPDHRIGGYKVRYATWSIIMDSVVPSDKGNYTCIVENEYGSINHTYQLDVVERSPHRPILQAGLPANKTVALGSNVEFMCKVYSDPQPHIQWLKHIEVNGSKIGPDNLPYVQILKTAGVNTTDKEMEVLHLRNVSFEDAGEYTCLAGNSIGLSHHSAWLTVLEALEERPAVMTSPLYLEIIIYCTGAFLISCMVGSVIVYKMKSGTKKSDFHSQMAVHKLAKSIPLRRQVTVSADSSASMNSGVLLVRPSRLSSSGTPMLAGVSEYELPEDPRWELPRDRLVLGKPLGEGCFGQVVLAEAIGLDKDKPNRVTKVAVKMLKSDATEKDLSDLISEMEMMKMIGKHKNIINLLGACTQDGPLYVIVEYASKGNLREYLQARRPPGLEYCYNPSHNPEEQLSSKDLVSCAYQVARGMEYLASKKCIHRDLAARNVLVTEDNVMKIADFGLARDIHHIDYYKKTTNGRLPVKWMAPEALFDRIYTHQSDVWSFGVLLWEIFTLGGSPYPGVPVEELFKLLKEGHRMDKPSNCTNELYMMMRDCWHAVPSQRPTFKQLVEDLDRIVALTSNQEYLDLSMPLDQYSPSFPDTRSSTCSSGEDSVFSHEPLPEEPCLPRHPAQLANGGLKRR
UniProt P21802, whole entry, looked up: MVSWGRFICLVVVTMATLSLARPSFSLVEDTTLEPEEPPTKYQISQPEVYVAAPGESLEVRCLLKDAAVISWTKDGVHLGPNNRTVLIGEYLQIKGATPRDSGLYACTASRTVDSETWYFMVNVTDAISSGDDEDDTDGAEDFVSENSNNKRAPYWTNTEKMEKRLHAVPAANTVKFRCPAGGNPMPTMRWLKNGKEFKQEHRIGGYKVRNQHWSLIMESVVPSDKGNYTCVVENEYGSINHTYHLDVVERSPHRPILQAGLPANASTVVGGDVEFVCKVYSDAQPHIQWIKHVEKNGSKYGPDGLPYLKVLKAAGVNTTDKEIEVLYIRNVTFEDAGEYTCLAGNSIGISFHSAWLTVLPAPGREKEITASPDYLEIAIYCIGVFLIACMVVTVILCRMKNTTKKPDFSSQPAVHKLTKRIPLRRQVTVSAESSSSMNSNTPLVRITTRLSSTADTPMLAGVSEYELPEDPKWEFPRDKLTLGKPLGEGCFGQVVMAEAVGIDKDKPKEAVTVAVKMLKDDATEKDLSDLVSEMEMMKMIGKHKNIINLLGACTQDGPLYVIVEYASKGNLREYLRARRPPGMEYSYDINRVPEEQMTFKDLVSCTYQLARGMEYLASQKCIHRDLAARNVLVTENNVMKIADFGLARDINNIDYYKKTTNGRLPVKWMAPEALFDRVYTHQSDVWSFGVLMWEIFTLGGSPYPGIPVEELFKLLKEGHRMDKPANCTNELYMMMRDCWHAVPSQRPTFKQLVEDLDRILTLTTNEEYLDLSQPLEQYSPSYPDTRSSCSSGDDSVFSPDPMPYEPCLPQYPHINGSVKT
UniProt P22607, whole entry, looked up: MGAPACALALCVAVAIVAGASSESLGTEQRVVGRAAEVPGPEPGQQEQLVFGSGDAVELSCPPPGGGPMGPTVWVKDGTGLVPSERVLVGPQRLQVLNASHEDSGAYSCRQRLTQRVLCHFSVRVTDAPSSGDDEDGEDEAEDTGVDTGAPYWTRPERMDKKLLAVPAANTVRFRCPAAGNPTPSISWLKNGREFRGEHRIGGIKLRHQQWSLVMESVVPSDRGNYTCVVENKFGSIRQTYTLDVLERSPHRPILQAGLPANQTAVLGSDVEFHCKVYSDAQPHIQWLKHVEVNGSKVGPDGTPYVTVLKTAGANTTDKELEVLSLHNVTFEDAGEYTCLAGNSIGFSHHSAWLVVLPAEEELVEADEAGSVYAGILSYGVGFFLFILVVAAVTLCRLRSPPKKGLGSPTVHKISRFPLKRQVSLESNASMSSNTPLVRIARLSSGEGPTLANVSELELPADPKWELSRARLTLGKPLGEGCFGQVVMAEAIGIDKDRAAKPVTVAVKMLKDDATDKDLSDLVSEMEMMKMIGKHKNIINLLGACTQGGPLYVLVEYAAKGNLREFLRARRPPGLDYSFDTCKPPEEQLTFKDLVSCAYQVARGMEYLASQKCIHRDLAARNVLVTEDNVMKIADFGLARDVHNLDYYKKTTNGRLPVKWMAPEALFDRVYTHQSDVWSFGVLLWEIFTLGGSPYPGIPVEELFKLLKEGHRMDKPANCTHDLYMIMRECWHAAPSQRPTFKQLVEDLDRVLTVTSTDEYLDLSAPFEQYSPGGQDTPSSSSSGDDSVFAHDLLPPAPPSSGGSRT

Structure (SMILES)	number of time points (EGFR_L861Q)	number of time points (EGFR_T790M)	number of time points (EPHA2)	number of time points (ERBB3)	number of time points [1]	number of time points (ERN1)	number of time points (FGFR1)	number of time points (FGFR2)	number of time points (FGFR3)	number of time points (FGR)
CCOc1cc(C(=O)N2CCC(N3CCN(C)CC3)CC2)ccc1Nc1ncc2c(n1)N(S(C)(=O)=O)c1ccccc1C(=O)N2C (10 µM)	0	0	0	0	0	0	0	0	0	0
NC(=O)c1nc(-c2c(F)cccc2Cl)oc1Nc1ccc(C(=O)N2CCOCC2)cc1 (10 µM)	0	0	0	0	2	0	0	0	0	0
Cc1nc(Nc2ncc(C(=O)Nc3c(C)cccc3Cl)s2)cc(N2CCN(C(=O)CCCCCCC(=O)N[C@H](C(=O)N3C[C@H](O)C[C@H]3C(=O)NCc3ccc(-c4scnc4C)cc3)C(C)(C)C)CC2)n1 (2.5 µM)	2	1	1	3	3	2	2	3	1	3
C[C@H](CC[C@@H](O)C(C)(C)O)[C@H]1CC[C@@]2(C)[C@@H]3CC=C4[C@@H](CC[C@H](O)C4(C)C)[C@]3(C)[C@H](O)C[C@]12C [Mogrol] (10 µM)	0	0	0	0	0	0	0	0	0	0
CCN1C(C)(C)CC(Oc2ccc(C(=O)Nc3ccc(NC(=O)Nc4cc(C(C)(C)C)on4)cc3)nc2)CC1(C)C (10 µM)	0	0	0	0	0	0	0	0	0	0
Cn1cc(C2=C(c3c4n(c5ccccc35)CCC(CN)C4)C(=O)NC2=O)c2ccccc21 (stereo not given) [Bisindolylmaleimide X (hydrochloride)] (2.5 µM)	0	0	0	0	0	0	0	0	0	0
CN1CCN(c2ccc(NC(=O)c3ccc(C#N)o3)c(N3CCCCC3)c2)CC1 (10 µM)	0	0	0	0	0	0	0	0	0	0
Cc1c(C(=O)Nc2ccc(Oc3ccnc4cc(OCC(C)(C)O)ccc34)c(F)c2)c(=O)n(-c2ccccc2)n1C [Ningetinib Tosylate] (10 µM)	0	0	0	2	1	0	1	2	0	0
CCC(=O)N1CC[C@H](Nc2ncnc3c2CN(c2cnc(OC)c(C(F)(F)F)c2)CC3)C1 [Leniolisib] (10 µM)	0	0	0	0	0	0	0	0	0	0
CNC(=O)c1nnc(NC(=O)C2CC2)cc1Nc1cccc(-c2ncn(C)n2)c1OC [Deucravacitinib] (10 µM)	0	0	0	1	0	0	0	0	0	0
CC(C)=C/C=C1\O[C@@H]2CC(C)=CC(=O)[C@@H]2[C@]1(C)O [Bisabolangelone] (10 µM)	0	0	0	0	0	0	0	0	0	0
CNC[C@@H](NC(=O)c1ccc(-c2nc([C@H]3CC[C@H](O)[C@@H](F)C3)cnc2N)cc1F)c1cc(F)cc(Br)c1 [Rineterkib] (10 µM)	0	0	0	0	0	0	0	0	0	0
O=c1ccc2cc(O)c(O)cc2o1 [Esculetin] (10 µM)	0	0	0	0	0	0	0	0	0	0
O=C1NC(=O)C(c2ccccc2[N+](=O)[O-])=C1Nc1ccc(O)c(Cl)c1 (10 µM)	0	0	0	0	0	0	0	0	0	0
C[C@@H]1O[C@@H](O[C@H]2[C@H](OC(=O)[C@]34CCC(C)(C)C[C@H]3C3=CC[C@@H]5[C@@]6(C)C[C@H](O)[C@H](O[C@@H]7O[C@H](CO)[C@@H](O)[C@H](O)[C@H]7O)C(CO)(CO)[C@@H]6CC[C@@]5(C)[C@]3(C)C[C@H]4O)OC[C@H](O)[C@@H]2O)[C@H](O)[C@H](O)[C@H]1O[C@@H]1OC[C@@H](O)[C@H](O[C@@H]2OC[C@](O)(CO)[C@H]2O)[C@H]1O [Platycodin D] (10 µM)	0	0	0	0	0	0	0	0	0	0
COc1c(OCCCN2CCOCC2)ccc2c3n(c(=NC(=O)c4cnc(N)nc4)nc12)CCN3 [Copanlisib (dihydrochloride)] (10 µM)	3	1	0	3	4	0	2	3	4	0
O=c1[nH]nc(Sc2ncc([N+](=O)[O-])s2)n1-c1ccc2c(c1)OCCO2 (2.5 µM)	0	0	0	0	0	0	0	0	0	0
O=C(Nc1nc2cccc(-c3ccc(CN4CCS(=O)(=O)CC4)cc3)n2n1)C1CC1 [Filgotinib] (2.5 µM)	0	0	0	0	0	0	0	0	0	0

Structure (SMILES)	number of time points (EGFR_L861Q)	number of time points (EGFR_T790M)	number of time points (EPHA2)	number of time points (ERBB3)	number of time points [1]	number of time points (ERN1)	number of time points (FGFR1)	number of time points (FGFR2)	number of time points (FGFR3)	number of time points (FGR)
N#Cc1cn([C@@H]2O[C@H](CO)[C@@H](O)[C@H]2O)c2nc[nH]c(=O)c12 [Jaspamycin] (10 µM)	0	0	0	0	0	0	0	0	0	0
CCn1c2ccccc2c2cc(Nc3ccnc(NCCCN4CCOCC4)n3)ccc21 (2.5 µM)	0	0	0	0	0	0	0	0	0	0
C[C@@H]1CN(CC(=O)Nc2ccc3c(c2)Cc2cccc(-c4cc(=O)cc(N5CCOCC5)o4)c2S3)C[C@H](C)O1 (2.5 µM)	0	0	0	0	0	0	0	0	0	0
N#Cc1c[nH]c2ccc(-c3ccc(-c4c(O)cccc4O)cc3)cc12 (10 µM)	0	0	0	0	0	0	0	0	0	0
O=C(Nc1cc(Cl)cc(Cl)c1)Nc1cc(Cl)cc(Cl)c1 (10 µM)	0	0	0	0	0	0	0	0	0	0
CCn1c(-c2nonc2N)nc2c(C#CCO)ncc(OCCCN)c21 [AKT Kinase Inhibitor] (10 µM)	0	0	0	0	0	0	0	0	0	0
Cc1ccc(-c2csc(Cn3nc(CC4OCCCO4)c4ccccc4c3=O)n2)cc1 (10 µM)	0	0	0	0	0	0	1	0	0	0
O=S(=O)(c1cccc2c(Cl)cccc12)N1CCCNCC1 (10 µM)	0	0	0	0	0	0	0	0	0	0
CCCCCC1CC1CC1CC1CCCCCCCC(=O)O (stereo not given) (10 µM)	0	0	0	0	0	0	0	0	0	0
COc1cc(/C=C/c2ccc(NC(=O)/C=C/c3cc(OC)c(OC)c(OC)c3)cc2)cc(OC)c1 (2.5 µM)	0	0	0	0	0	0	0	0	0	0
Cn1sc(=O)n(Cc2ccccc2)c1=O (10 µM)	0	0	0	0	0	0	0	0	0	0
O=C(O)[C@]1(Cc2cccc(Nc3nccs3)n2)CC[C@@H](Oc2cccc(Cl)c2F)CC1 (2.5 µM)	1	1	0	2	3	0	0	1	0	0
C=CCN(/C=C1/C(=O)O[C@H](COC)[C@@]2(C)C1=C(O)C(=O)C1=C2[C@H](OC(C)=O)C[C@]2(C)C(=O)CC[C@@H]12)CC=C [Sonolisib] (2.5 µM)	0	0	0	0	0	0	0	0	0	0
COC[C@H]1Cn2cc(-c3nc(Nc4ccnn4C)ncc3C)nc2C(=O)N1Cc1ccc(F)c(F)c1 (10 µM)	0	0	0	0	0	0	0	0	0	0
C[C@@H](Nc1cc(F)cc(F)c1)c1cc(C(=O)N(C)C)cc2c(=O)cc(N3CCOCC3)oc12 (10 µM)	0	0	0	0	0	0	0	1	0	0
COC(=O)/C=C/c1ccc(O)c(OC)c1 [Ferulic acid methyl ester] (10 µM)	0	0	0	0	0	0	0	0	0	0
COc1ccc(-c2cnc3c(-c4cccc5ncccc45)cnn3c2)cc1 (10 µM)	0	0	0	0	0	0	0	0	0	0

2 compounds from above, reduced to number of time points (EGFR_T790M), number of time points [1] and number of time points (EPHA2):
Structure (SMILES) | number of time points (EGFR_T790M) | number of time points [1] | number of time points (EPHA2)
CCN1C(C)(C)CC(Oc2ccc(C(=O)Nc3ccc(NC(=O)Nc4cc(C(C)(C)C)on4)cc3)nc2)CC1(C)C (10 µM) | 0 | 0 | 0
Cc1ccc(-c2csc(Cn3nc(CC4OCCCO4)c4ccccc4c3=O)n2)cc1 (10 µM) | 0 | 0 | 0

Reference: the supplement of paper PMC12823440, “Inhibitors supercharge kinase turnover through native proteolytic circuits” (Nature, 2025)
